Results taken from paper PMC3407492.
Results are given in words; binding and its absence hold for the method and conditions named. Binding seen in cells or lysates may run through a third protein. Some binding calls cover weakened binding; strength is not graded here. For some of these results: Where a sequence is shown, tags or fusion partners need not be part of it.

Amino acid sequences for entries named in this document (tags omitted).
UniProt Q13547: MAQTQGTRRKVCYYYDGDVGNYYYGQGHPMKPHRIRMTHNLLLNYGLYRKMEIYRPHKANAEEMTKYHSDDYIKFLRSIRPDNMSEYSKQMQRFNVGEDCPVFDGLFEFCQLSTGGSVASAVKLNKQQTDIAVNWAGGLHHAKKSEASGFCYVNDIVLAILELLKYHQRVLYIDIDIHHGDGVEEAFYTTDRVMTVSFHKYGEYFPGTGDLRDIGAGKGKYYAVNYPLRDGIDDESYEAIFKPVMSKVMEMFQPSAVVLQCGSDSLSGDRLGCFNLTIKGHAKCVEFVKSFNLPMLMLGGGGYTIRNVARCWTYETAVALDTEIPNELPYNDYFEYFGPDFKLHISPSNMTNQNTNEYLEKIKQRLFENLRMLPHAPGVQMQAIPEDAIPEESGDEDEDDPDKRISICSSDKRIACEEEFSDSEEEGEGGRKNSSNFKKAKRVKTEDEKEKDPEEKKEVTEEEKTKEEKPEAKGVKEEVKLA
UniProt Q92769: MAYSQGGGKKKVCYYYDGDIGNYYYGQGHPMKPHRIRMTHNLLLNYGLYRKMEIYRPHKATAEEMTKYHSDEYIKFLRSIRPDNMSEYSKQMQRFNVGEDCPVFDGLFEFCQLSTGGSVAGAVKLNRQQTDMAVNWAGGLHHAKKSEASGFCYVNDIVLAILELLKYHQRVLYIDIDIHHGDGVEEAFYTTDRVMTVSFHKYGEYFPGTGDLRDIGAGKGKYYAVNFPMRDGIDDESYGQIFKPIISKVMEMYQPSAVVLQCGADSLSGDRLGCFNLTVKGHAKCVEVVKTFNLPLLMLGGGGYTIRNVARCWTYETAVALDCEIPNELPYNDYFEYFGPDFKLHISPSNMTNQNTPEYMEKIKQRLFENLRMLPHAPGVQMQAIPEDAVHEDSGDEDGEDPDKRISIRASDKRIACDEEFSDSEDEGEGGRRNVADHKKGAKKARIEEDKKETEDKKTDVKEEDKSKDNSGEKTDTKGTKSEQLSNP

What was measured:
[1] = target: T1, Myb-binding protein 1a (Mybbp1a), endogenous (human (endogenous in HeLa)) (UniProt Q9BQG0); assay: co-IP; IP of endogenous Mybbp1a with anti-Mybbp1a antibody (control IgG beside it) from 1 mg cell extract, 2.5 ug antibody, 4 °C overnight, protein G-sepharose, six washes with WCE buffer; blots probed for HDAC1 and HDAC2
T1 sequence: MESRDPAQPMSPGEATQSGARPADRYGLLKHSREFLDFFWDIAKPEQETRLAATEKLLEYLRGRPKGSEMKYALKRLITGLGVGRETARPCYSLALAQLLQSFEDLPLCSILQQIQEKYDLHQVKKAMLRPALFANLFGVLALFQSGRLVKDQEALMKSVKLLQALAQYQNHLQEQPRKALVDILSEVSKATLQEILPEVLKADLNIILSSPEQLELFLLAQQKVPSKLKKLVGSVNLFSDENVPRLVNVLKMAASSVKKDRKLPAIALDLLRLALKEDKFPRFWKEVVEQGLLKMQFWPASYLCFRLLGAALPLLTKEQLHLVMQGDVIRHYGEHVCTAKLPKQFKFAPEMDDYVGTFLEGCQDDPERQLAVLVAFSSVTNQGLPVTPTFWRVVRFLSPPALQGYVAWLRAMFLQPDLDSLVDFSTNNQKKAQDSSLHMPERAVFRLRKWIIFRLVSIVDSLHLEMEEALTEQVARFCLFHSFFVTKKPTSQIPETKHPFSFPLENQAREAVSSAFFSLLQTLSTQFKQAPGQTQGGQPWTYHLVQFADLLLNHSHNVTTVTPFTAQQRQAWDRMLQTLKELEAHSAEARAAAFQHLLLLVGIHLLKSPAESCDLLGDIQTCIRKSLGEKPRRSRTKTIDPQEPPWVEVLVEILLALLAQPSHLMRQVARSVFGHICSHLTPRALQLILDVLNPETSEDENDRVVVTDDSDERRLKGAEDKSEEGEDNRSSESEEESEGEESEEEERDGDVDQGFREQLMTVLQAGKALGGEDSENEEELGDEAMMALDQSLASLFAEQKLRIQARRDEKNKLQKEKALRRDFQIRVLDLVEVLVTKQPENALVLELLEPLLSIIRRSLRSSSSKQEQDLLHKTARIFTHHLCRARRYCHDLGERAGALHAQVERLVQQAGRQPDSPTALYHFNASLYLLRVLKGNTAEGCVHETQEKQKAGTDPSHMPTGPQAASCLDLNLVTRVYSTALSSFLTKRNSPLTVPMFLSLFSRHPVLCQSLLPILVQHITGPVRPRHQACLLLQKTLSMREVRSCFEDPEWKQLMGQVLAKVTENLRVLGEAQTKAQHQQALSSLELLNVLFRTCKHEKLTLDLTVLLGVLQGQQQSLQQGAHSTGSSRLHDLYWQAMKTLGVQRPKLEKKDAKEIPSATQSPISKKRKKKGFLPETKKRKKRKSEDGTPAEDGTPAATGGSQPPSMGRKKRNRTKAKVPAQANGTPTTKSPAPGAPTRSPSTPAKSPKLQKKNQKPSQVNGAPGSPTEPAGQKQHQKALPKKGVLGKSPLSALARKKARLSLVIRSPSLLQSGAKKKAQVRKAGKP

Myc-Mybbp1a (exogenous) = target: T2, Myc-Mybbp1a (exogenous) (UniProt Q7TPV4); assay: co-IP; co-immunoprecipitation with exogenous Myc-Mybbp1a; data not shown, which antibody precipitated is not told
T2 sequence: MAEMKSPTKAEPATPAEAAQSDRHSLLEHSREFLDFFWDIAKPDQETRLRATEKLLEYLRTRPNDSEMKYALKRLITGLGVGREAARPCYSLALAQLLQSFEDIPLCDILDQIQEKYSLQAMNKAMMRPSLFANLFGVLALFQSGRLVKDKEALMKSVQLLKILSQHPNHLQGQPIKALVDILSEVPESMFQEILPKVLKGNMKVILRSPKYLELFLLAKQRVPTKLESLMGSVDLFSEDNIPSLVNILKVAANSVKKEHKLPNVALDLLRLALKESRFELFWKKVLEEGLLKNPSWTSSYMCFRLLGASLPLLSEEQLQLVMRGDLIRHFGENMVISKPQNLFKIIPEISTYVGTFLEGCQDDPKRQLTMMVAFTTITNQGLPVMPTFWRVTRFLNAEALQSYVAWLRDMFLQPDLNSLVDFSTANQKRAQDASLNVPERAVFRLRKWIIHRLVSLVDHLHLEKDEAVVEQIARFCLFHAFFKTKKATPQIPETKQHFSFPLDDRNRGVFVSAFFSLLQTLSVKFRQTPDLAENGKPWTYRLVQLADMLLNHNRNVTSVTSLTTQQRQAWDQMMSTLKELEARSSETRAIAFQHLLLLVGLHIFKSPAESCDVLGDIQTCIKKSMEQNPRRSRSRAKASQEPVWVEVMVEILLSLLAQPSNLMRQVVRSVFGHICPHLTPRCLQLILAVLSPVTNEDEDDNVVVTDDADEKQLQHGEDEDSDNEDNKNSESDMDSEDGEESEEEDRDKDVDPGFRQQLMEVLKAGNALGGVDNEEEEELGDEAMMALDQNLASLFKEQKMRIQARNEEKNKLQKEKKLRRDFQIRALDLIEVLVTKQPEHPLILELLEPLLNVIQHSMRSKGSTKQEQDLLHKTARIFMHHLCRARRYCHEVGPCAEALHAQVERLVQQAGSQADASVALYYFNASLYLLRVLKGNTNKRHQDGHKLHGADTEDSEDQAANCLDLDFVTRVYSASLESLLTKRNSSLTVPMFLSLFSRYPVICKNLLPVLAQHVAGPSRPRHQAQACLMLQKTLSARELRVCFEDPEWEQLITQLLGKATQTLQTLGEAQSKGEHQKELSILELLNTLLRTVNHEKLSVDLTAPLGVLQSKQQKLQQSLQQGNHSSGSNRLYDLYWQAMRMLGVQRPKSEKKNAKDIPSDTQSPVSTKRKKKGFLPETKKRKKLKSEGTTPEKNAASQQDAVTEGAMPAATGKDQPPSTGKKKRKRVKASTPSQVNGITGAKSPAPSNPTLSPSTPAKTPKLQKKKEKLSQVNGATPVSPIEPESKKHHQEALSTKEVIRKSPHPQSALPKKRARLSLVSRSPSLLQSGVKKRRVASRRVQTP

Substance | binding [1] | binding (Myc-Mybbp1a (exogenous))
Histone deacetylase 1 (HDAC1), endogenous (from UniProt Q13547 1-482) (enzyme) | binds | binds
Histone deacetylase 2 (HDAC2), endogenous (from UniProt Q92769 1-488) (enzyme) | binds | binds
